Reference: ChEMBL document CHEMBL4177750, “Imidazopyrazinones (IPYs): Non-Quinolone Bacterial Topoisomerase Inhibitors Showing Partial Cross-Resistance with Quinolones” (J Med Chem, 2018)
≈ marks a conversion by molar mass, not a printed value.

Sequences of proteins named here, by UniProt entry; tags and fusion partners are left off. A change or cut given only in a name is not applied to a line headed by its entry.
UniProt Q12809: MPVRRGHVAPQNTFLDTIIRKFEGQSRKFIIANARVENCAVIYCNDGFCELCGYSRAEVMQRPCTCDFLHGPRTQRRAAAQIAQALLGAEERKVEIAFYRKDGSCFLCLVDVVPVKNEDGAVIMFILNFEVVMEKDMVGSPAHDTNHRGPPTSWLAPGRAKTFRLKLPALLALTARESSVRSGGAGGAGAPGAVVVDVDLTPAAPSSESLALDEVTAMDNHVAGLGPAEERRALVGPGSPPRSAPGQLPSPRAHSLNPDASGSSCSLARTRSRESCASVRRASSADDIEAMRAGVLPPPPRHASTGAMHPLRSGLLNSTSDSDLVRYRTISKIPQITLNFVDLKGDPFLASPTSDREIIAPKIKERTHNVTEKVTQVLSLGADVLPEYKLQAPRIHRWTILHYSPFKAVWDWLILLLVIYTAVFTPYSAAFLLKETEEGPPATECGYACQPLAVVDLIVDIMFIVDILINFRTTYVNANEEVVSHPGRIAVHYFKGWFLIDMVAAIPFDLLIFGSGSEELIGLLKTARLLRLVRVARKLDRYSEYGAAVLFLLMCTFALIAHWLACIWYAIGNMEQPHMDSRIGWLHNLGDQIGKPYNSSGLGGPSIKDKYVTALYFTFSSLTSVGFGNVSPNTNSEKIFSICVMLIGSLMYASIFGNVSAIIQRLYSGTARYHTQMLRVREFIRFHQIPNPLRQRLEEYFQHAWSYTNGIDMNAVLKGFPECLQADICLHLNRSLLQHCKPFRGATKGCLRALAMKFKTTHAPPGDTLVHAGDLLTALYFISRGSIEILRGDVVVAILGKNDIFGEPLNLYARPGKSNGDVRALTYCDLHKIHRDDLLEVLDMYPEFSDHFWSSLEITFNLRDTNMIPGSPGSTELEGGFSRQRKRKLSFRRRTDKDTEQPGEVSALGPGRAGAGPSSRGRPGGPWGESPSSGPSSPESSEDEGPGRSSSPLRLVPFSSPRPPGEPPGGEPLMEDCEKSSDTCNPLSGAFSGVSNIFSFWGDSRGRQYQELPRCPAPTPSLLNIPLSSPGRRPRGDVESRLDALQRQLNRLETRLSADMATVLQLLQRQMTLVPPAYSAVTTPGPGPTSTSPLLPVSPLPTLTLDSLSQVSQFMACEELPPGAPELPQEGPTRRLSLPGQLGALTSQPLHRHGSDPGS

Tests used:
[1] = biological target: Voltage-gated inwardly rectifying potassium channel KCNH2 (Homo sapiens, UniProt Q12809); assay: Inhibition of human ERG transfected in CHO cells by patch clamp method
Escherichia coli = assay: Antibacterial activity against hyperpermeable Escherichia coli D22 harboring LpxC mutant after 20 to 22 hrs
[2] = Thermodynamic aqueous solubility of the compound at pH 7.4; settings: buffer
[3] = Apparent permeability across human Caco2 cells; settings: Caco-2

With `O=c1c2nccn2c2cc(F)c(-c3ccncc3)cc2n1C1CC1` the IC50 [1] was greater than 30 µM, the MIC (Escherichia coli) was 8 µg/mL (≈ 25 µM) and the solubility thermodynamic [2] was 10 µg/mL (≈ 31.2 µM). The Papp [3] was 21.6 ×10⁻⁶ cm/s.
